In publication PMC5513536:
Results are given in words; binding and its absence hold for the method and conditions named. Binding seen in cells or lysates may run through a third protein. Here binding means that the protein was enriched with, or labelled near, the bait; the list need not be complete.

Protein sequences, listed by entry. Tags and fused reporters are not part of them.
UniProt F5HID2: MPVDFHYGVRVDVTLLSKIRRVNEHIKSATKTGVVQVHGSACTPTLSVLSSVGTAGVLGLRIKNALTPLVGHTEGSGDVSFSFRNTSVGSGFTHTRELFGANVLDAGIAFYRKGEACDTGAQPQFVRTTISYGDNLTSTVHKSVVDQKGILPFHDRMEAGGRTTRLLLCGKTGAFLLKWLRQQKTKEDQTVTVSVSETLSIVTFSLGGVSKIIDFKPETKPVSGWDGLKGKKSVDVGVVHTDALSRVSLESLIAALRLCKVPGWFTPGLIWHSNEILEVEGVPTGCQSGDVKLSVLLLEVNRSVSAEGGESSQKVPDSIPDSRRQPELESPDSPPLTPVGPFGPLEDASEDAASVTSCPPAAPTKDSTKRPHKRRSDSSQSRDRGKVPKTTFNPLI

B1: ATP-binding cassette sub-family F member 2 (protein, UniProt Q9UG63 1-623)
chain: MPSDLAKKKAAKKKEAAKARQRPRKGHEENGDVVTEPQVAEKNEANGRETTEVDLLTKELEDFEMKKAAARAVTGVLASHPNSTDVHIINLSLTFHGQELLSDTKLELNSGRRYGLIGLNGIGKSMLLSAIGKREVPIPEHIDIYHLTREMPPSDKTPLHCVMEVDTERAMLEKEAERLAHEDAECEKLMELYERLEELDADKAEMRASRILHGLGFTPAMQRKKLKDFSGGWRMRVALARALFIRPFMLLLDEPTNHLDLDACVWLEEELKTFKRILVLVSHSQDFLNGVCTNIIHMHNKKLKYYTGNYDQYVKTRLELEENQMKRFHWEQDQIAHMKNYIARFGHGSAKLARQAQSKEKTLQKMMASGLTERVVSDKTLSFYFPPCGKIPPPVIMVQNVSFKYTKDGPCIYNNLEFGIDLDTRVALVGPNGAGKSTLLKLLTGELLPTDGMIRKHSHVKIGRYHQHLQEQLDLDLSPLEYMMKCYPEIKEKEEMRKIIGRYGLTGKQQVSPIRNLSDGQKCRVCLAWLAWQNPHMLFLDEPTNHLDIETIDALADAINEFEGGMMLVSHDFRLIQQVAQEIWVCEKQTITKWPGDILAYKEHLKSKLVDEEPQLTKRTHNV
B2: Non-POU domain-containing octamer-binding protein (protein, UniProt Q15233 1-471)
chain: MQSNKTFNLEKQNHTPRKHHQHHHQQQHHQQQQQQPPPPPIPANGQQASSQNEGLTIDLKNFRKPGEKTFTQRSRLFVGNLPPDITEEEMRKLFEKYGKAGEVFIHKDKGFGFIRLETRTLAEIAKVELDNMPLRGKQLRVRFACHSASLTVRNLPQYVSNELLEEAFSVFGQVERAVVIVDDRGRPSGKGIVEFSGKPAARKALDRCSEGSFLLTTFPRPVTVEPMDQLDDEEGLPEKLVIKNQQFHKEREQPPRFAQPGSFEYEYAMRWKALIEMEKQQQDQVDRNIKEAREKLEMEMEAARHEHQVMLMRQDLMRRQEELRRMEELHNQEVQKRKQLELRQEEERRRREEEMRRQQEEMMRRQQEGFKGTFPDAREQEIRMGQMAMGGAMGINNRGAMPPAPVPAGTPAPPGPATMMPDGTLGLTPPTTERFGQAATMEGIGAIGGTPPAFNRAAPGAEFAPNKRRRY
B3: Eukaryotic translation initiation factor 5B (protein, UniProt O60841 1-1220)
chain: MGKKQKNKSEDSTKDDIDLDALAAEIEGAGAAKEQEPQKSKGKKKKEKKKQDFDEDDILKELEELSLEAQGIKADRETVAVKPTENNEEEFTSKDKKKKGQKGKKQSFDDNDSEELEDKDSKSKKTAKPKVEMYSGSDDDDDFNKLPKKAKGKAQKSNKKWDGSEEDEDNSKKIKERSRINSSGESGDESDEFLQSRKGQKKNQKNKPGPNIESGNEDDDASFKIKTVAQKKAEKKERERKKRDEEKAKLRKLKEKEELETGKKDQSKQKESQRKFEEETVKSKVTVDTGVIPASEEKAETPTAAEDDNEGDKKKKDKKKKKGEKEEKEKEKKKGPSKATVKAMQEALAKLKEEEERQKREEEERIKRLEELEAKRKEEERLEQEKRERKKQKEKERKERLKKEGKLLTKSQREARARAEATLKLLQAQGVEVPSKDSLPKKRPIYEDKKRKKIPQQLESKEVSESMELCAAVEVMEQGVPEKEETPPPVEPEEEEDTEDAGLDDWEAMASDEETEKVEGNKVHIEVKENPEEEEEEEEEEEEDEESEEEEEEEGESEGSEGDEEDEKVSDEKDSGKTLDKKPSKEMSSDSEYDSDDDRTKEERAYDKAKRRIEKRRLEHSKNVNTEKLRAPIICVLGHVDTGKTKILDKLRHTHVQDGEAGGITQQIGATNVPLEAINEQTKMIKNFDRENVRIPGMLIIDTPGHESFSNLRNRGSSLCDIAILVVDIMHGLEPQTIESINLLKSKKCPFIVALNKIDRLYDWKKSPDSDVAATLKKQKKNTKDEFEERAKAIIVEFAQQGLNAALFYENKDPRTFVSLVPTSAHTGDGMGSLIYLLVELTQTMLSKRLAHCEELRAQVMEVKALPGMGTTIDVILINGRLKEGDTIIVPGVEGPIVTQIRGLLLPPPMKELRVKNQYEKHKEVEAAQGVKILGKDLEKTLAGLPLLVAYKEDEIPVLKDELIHELKQTLNAIKLEEKGVYVQASTLGSLEALLEFLKTSEVPYAGINIGPVHKKDVMKASVMLEHDPQYAVILAFDVRIERDAQEMADSLGVRIFSAEIIYHLFDAFTKYRQDYKKQKQEEFKHIAVFPCKIKILPQYIFNSRDPIVMGVTVEAGQVKQGTPMCVPSKNFVDIGIVTSIEINHKQVDVAKKGQEVCVKIEPIPGESPKMFGRHFEATDILVSKISRQSIDALKDWFRDEMQKSDWQLIVELKKVFEII
B4: Guanine nucleotide binding protein-like 3 (Nucleolar), isoform CRA_b (protein, UniProt Q9BVP2 1-549)
chain: MKRPKLKKASKRMTCHKRYKIQKKVREHHRKLRKEAKKRGHKKPRKDPGVPNSAPFKEALLREAELRKQRLEELKQQQKLDRQKELEKKRKLETNPDIKPSNVEPMEKEFGLCKTENKAKSGKQNSKKLYCQELKKVIEASDVVLEVLDARDPLGCRCPQVEEAIVQSGQKKLVLILNKSDLVPKENLESWLNYLKKELPTVVFRASTKPKDKGKITKRVKAKKNAAPFRSEVCFGKEGLWKLLGGFQETCSKAIRVGVIGFPNVGKSSIINSLKQEQMCNVGVSMGLTRSMQVVPLDKQITIIDSPSFIVSPLNSSSALALRSPASIEVVKPMEAASAILSQADARQVVLKYTVPGYRNSLEFFTVLAQRRGMHQKGGIPNVEGAAKLLWSEWTGASLAYYCHPPTSWTPPPYFNESIVVDMKSGFNLEELEKNNAQSIRAIKGPHLANSILFQSSGLTNGIIEEKDIHEELPKRKERKQEEREDDKDSDQETVDEEVDENSSGMFAAEETGEALSEETTAGEQSTRSFILDKIIEEDDAYDFSTDYV
B5: Proliferation-associated 2G4, 38kDa, isoform CTA (protein, UniProt Q9UQ80 1-394)
chain: MSGEDEQQEQTIAEDLVVTKYKMGGDIANRVLRSLVEASSSGVSVLSLCEKGDAMIMEETGKIFKKEKEMKKGIAFPTSISVNNCVCHFSPLKSDQDYILKEGDLVKIDLGVHVDGFIANVAHTFVVDVAQGTQVTGRKADVIKAAHLCAEAALRLVKPGNQNTQVTEAWNKVAHSFNCTPIEGMLSHQLKQHVIDGEKTIIQNPTDQQKKDHEKAEFEVHEVYAVDVLVSSGEGKAKDAGQRTTIYKRDPSKQYGLKMKTSRAFFSEVERRFDAMPFTLRAFEDEKKARMGVVECAKHELLQPFNVLYEKEGEFVAQFKFTVLLMPNGPMRITSGPFEPDLYKSEMEVQDAELKALLQSSASRKTQKKKKKKASKTAENATSGETLEENEAGD
B6: tRNA-splicing ligase RtcB homolog (protein, UniProt Q9Y3I0 1-505)
chain: MSRSYNDELQFLEKINKNCWRIKKGFVPNMQVEGVFYVNDALEKLMFEELRNACRGGGVGGFLPAMKQIGNVAALPGIVHRSIGLPDVHSGYGFAIGNMAAFDMNDPEAVVSPGGVGFDINCGVRLLRTNLDESDVQPVKEQLAQAMFDHIPVGVGSKGVIPMNAKDLEEALEMGVDWSLREGYAWAEDKEHCEEYGRMLQADPNKVSARAKKRGLPQLGTLGAGNHYAEIQVVDEIFNEYAAKKMGIDHKGQVCVMIHSGSRGLGHQVATDALVAMEKAMKRDKIIVNDRQLACARIASPEGQDYLKGMAAAGNYAWVNRSSMTFLTRQAFAKVFNTTPDDLDLHVIYDVSHNIAKVEQHVVDGKERTLLVHRKGSTRAFPPHHPLIAVDYQLTGQPVLIGGTMGTCSYVLTGTEQGMTETFGTTCHGAGRALSRAKSRRNLDFQDVLDKLADMGIAIRVASPKLVMEEAPESYKNVTDVVNTCHDAGISKKAIKLRPIAVIKG
B7: Isoform 2 of DNA replication licensing factor MCM3 (protein, UniProt P25205-2 1-853)
chain: MLPRSPPLPRGNLWWREEFGSFRAGVESSWEPPRDFGGGSSLAAGMAGTVVLDDVELREAQRDYLDFLDDEEDQGIYQSKVRELISDNQYRLIVNVNDLRRKNEKRANRLLNNAFEELVAFQRALKDFVASIDATYAKQYEEFYVGLEGSFGSKHVSPRTLTSCFLSCVVCVEGIVTKCSLVRPKVVRSVHYCPATKKTIERRYSDLTTLVAFPSSSVYPTKDEENNPLETEYGLSVYKDHQTITIQEMPEKAPAGQLPRSVDVILDDDLVDKAKPGDRVQVVGTYRCLPGKKGGYTSGTFRTVLIACNVKQMSKDAQPSFSAEDIAKIKKFSKTRSKDIFDQLAKSLAPSIHGHDYVKKAILCLLLGGVERDLENGSHIRGDINILLIGDPSVAKSQLLRYVLCTAPRAIPTTGRGSSGVGLTAAVTTDQETGERRLEAGAMVLADRGVVCIDEFDKMSDMDRTAIHEVMEQGRVTIAKAGIHARLNARCSVLAAANPVYGRYDQYKTPMENIGLQDSLLSRFDLLFIMLDQMDPEQDREISDHVLRMHRYRAPGEQDGDAMPLGSAVDILATDDPNFSQEDQQDTQIYEKHDNLLHGTKKKKEKMVSAAFMKKYIHVAKIIKPVLTQESATYIAEEYSRLRSQDSMSSDTARTSPVTARTLETLIRLATAHAKARMSKTVDLQDAEEAVELVQYAYFKKVLEKEKKRKKRSEDESETEDEEEKSQEDQEQKRKRRKTRQPDAKDGDSYDPYDFSDTEEEMPQVHTPKTADSQETKESQKVELSESRLKAFKVALLDVFREAHAQSIGMNRLTESINRDSEEPFSSVEIQAALSKMQDDNQVMVSEGIIFLI
B8: ORF9 (protein, UniProt Q2HRD0 1-1012)
chain: MDFFNPFIDPTRGGPRNTVRQPTPSQSPTVPSETRVCRLIPACFQTPGRPGVVAVDTTFPPTYFQGPKRGEVFAGETGSIWKTRRGQARNAPMSHLIFHVYDIVETTYTADRCEDVPFSFQTDIIPSGTVLKLLGRTLDGASVCVNVFRQRCYFYTLAPQGVNLTHVLQQALQAGFGRASCGFSTEPVRKKILRAYDTQQYAVQKITLSSSPMMRTLSDRLTTCGCEVFESNVDAIRRFVLDHGFSTFGWYECSNPAPRTQARDSWTELEFDCSWEDLKFIPERTEWPPYTILSFDIECMGEKGFPNATQDEDMIIQISCVLHTVGNDKPYTRMLLGLGTCDPLPGVEVFEFPSEYDMLAAFLSMLRDYNVEFITGYNIANFDLPYIIARATQVYDFKLQDFTKIKTGSVFEVHQPRGGSDGGNFMRSQSKVKISGIVPIDMYQVCREKLSLSDYKLDTVAKQCLGRQKDDISYKDIPPLFKSGPDGRAKVGNYCVIDSVLVMDLLLRFQTHVEISEIAKLAKIPTRRVLTDGQQIRVFSCLLEAAATEGYILPVPKGDAVSGYQGATVISPSPGFYDDPVLVVDFASLYPSIIQAHNLCYSTLIPGDSLHLHPHLSPDDYETFVLSGGPVHFVKKHKRESLLAKLLTVWLAKRKEIRKTLASCTDPALKTILDKQQLAIKVTCNAVYGFTGVASGILPCLNIAETVTLQGRKMLERSQAFVEAISPERLAGLLRRPVDVSPDARFKVIYGDTDSLFICCMGFNMDSVSDFAEELASITTNTLFRSPIKLEAEKIFKCLLLLTKKRYVGVLSDDKVLMKGVDLIRKTACRFVQEKSSQVLDLILREPSVKAAAKLISGQATDWVYREGLPEGFVKIIQVLNASHRELCERSVPVDKLTFTTELSRPLADYKTQNLPHLTVYQKLQARQEELPQIHDRIPYVFVDAPGSLRSELAEHPEYVKQHGLRVAVDLYFDKLVHAVANIIQCLFQNNTSATVAILYNFLDIPVTFPTP
B9: ORF36 (protein, UniProt F5HGH5 1-444)
chain: MRWKRMERRPPLTPLRRSRTQSSGGGLTICPRCALKLPKATRISERPWASTWQLNQHIQVSKTKKATAYLKAPREWGQCTHQDPDWSKRLGRGAFGIIVPISEDLCVKQFDSRREFFYEAIANDLMQATRERYPMHSGGSRLLGFVQPCIPCRSIVYPRMKCNLLQLDWSQVNLSVMAAEFTGLMAAVSFLNRYCGMVHCDVSPDNILATGDLTPMNPGRLVLTDFGSVALHSGSKWTNLVVTSNLGFKQHCYDFRVPPKLICKHLYKPSCVLFQCYLSSLGKMHAQVLDQPYPISPNMGLTIDMSSLGYTLLTCLELYLDLPLNNPLKFLGSATRDGRPEPMYYLGFMIPRVVMTQILSAVWTMTLDLGLDCTGKAQAIPMRQEHQLAFQKQCYLYKANQKAESLANCSDKLNCPMLKSLVRKLLERDFFNHGGHPHTRGLVF

molecular target: Flag-epitope tagged ORF59 (BAC16-ORF59Flag) (KSHV (human herpesvirus 8)) (UniProt F5HID2); test: affinity purification with mass spectrometry

Binder	binding
B1	binds
B2	binds
B3	binds
B4	binds
B5	binds
B6	binds
B7	binds
B8	binds
B9	binds
